Some of the results follow. Most values lie at the level of the controls, where differences are scatter.

By UniProt entry, the sequences of proteins in these tests, tags left out. Where a name states a change or a piece, a line headed by the entry shows the natural chain unless it says otherwise.
UniProt Q6IR34: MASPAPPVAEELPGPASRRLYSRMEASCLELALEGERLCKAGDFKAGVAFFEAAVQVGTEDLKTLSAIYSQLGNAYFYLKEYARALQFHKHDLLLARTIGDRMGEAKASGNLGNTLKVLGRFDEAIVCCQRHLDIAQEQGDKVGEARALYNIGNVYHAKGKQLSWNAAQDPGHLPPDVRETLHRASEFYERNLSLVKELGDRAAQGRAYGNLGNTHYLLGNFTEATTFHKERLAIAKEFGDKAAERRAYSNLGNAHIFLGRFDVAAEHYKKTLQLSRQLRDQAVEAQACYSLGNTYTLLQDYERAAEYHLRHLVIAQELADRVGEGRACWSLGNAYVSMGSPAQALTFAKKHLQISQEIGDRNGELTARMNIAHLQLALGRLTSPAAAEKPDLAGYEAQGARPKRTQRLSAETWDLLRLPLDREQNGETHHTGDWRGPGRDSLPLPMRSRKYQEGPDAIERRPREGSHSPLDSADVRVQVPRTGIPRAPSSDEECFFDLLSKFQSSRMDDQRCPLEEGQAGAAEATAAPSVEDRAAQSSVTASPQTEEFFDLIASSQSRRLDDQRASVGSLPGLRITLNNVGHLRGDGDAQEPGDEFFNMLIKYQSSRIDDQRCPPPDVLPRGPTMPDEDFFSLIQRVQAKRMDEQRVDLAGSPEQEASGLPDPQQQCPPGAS
UniProt Q69ZT1: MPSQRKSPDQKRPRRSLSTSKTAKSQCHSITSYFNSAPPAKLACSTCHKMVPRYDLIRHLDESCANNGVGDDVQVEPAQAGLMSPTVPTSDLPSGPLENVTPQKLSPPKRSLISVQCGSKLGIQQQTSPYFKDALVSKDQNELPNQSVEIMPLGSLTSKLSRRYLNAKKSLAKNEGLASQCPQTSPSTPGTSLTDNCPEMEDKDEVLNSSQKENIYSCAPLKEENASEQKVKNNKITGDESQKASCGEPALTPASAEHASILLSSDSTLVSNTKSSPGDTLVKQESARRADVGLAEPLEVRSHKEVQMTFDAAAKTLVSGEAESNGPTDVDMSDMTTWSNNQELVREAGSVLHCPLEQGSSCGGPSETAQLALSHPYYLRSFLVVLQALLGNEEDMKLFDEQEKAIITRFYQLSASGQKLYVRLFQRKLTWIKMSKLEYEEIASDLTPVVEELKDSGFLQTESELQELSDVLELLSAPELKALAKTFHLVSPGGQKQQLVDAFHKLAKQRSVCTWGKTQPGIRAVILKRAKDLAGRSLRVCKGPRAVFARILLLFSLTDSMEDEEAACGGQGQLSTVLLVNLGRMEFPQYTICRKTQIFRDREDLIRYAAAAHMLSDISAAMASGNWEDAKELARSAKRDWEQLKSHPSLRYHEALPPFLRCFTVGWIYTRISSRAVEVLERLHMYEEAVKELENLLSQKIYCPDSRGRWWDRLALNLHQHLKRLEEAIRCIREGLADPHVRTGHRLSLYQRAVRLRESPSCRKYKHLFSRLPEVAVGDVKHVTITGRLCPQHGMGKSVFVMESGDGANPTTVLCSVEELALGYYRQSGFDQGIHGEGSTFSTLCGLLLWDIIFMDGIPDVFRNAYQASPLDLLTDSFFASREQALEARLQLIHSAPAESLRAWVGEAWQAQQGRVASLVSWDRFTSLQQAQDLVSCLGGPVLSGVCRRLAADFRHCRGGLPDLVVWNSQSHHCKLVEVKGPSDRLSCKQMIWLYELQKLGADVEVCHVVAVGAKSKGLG
UniProt Q6P8X1: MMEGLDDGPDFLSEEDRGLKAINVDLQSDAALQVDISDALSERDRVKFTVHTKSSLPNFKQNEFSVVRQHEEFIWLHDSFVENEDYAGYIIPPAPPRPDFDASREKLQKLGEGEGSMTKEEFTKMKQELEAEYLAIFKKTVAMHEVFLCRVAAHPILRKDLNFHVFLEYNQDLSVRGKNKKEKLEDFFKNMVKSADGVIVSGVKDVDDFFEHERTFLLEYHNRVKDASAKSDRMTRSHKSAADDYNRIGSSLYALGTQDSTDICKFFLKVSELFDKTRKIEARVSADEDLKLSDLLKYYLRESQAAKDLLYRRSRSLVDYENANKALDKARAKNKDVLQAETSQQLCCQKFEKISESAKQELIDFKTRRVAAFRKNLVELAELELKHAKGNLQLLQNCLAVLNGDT
UniProt Q6Q899: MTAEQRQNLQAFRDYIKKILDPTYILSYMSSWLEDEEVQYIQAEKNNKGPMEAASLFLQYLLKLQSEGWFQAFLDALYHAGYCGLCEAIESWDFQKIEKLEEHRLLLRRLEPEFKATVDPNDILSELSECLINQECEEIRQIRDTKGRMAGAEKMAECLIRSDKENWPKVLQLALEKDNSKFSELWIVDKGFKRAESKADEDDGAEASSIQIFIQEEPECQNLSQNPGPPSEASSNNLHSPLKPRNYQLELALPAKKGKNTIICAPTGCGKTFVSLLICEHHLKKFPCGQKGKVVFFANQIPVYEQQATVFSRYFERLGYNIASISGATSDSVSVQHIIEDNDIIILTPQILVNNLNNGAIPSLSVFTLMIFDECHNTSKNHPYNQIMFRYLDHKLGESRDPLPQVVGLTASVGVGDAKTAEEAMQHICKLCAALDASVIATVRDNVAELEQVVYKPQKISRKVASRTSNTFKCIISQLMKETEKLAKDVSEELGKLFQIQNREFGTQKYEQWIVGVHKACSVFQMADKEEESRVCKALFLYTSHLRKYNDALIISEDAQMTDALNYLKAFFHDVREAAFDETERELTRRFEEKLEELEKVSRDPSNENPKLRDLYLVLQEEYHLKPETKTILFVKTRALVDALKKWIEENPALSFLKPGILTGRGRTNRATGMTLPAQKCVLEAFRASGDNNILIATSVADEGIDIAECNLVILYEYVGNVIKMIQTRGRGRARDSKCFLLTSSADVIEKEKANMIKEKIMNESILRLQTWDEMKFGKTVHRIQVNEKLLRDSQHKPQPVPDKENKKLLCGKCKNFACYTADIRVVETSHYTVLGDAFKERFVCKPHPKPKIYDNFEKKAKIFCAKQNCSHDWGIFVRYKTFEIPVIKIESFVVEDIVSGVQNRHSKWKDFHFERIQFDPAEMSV
UniProt Q6P8I4: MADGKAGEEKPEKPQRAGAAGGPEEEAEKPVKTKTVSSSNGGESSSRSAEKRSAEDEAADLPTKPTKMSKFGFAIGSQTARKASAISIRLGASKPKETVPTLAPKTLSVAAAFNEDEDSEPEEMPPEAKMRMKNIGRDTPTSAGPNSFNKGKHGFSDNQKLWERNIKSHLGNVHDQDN
UniProt Q6P068: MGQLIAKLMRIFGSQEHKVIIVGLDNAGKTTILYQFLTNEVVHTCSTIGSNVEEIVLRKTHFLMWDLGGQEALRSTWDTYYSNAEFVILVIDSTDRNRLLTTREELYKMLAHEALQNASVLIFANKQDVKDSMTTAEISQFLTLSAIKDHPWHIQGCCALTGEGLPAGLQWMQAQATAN
UniProt Q6PAT0: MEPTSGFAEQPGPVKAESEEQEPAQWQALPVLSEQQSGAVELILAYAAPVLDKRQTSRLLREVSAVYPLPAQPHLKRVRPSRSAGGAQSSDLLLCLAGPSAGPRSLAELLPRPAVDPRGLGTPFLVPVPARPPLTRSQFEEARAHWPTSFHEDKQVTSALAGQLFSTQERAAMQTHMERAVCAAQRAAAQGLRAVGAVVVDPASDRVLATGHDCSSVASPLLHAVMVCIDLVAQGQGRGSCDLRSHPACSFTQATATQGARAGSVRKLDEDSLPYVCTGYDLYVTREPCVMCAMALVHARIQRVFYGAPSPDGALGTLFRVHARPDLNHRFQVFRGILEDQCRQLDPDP
UniProt Q6PGB6: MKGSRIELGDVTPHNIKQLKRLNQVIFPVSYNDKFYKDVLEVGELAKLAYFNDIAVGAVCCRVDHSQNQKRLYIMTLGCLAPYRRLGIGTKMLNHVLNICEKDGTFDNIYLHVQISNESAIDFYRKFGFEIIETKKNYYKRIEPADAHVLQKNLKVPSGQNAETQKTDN
UniProt Q6PE15: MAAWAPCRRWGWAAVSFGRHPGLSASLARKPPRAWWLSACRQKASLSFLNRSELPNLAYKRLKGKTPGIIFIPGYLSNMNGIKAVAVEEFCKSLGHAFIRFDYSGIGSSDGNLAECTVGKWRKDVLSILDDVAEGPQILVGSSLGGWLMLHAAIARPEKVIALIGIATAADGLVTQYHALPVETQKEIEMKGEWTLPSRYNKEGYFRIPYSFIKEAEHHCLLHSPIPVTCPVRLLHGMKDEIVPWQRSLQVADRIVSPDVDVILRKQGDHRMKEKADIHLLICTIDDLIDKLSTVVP
UniProt Q6DFX2: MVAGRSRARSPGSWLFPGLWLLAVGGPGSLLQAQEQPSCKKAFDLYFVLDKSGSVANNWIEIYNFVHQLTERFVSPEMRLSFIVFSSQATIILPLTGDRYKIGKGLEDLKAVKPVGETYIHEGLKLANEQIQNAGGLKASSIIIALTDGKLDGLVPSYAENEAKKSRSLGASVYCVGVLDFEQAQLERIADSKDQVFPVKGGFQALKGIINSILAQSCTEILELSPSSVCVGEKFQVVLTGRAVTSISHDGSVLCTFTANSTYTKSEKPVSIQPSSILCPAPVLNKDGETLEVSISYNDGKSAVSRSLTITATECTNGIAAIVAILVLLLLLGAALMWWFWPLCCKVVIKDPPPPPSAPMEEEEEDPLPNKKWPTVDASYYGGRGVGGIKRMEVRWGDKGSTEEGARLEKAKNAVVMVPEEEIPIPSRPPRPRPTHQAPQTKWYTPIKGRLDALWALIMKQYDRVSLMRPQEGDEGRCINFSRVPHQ
UniProt Q6NV72: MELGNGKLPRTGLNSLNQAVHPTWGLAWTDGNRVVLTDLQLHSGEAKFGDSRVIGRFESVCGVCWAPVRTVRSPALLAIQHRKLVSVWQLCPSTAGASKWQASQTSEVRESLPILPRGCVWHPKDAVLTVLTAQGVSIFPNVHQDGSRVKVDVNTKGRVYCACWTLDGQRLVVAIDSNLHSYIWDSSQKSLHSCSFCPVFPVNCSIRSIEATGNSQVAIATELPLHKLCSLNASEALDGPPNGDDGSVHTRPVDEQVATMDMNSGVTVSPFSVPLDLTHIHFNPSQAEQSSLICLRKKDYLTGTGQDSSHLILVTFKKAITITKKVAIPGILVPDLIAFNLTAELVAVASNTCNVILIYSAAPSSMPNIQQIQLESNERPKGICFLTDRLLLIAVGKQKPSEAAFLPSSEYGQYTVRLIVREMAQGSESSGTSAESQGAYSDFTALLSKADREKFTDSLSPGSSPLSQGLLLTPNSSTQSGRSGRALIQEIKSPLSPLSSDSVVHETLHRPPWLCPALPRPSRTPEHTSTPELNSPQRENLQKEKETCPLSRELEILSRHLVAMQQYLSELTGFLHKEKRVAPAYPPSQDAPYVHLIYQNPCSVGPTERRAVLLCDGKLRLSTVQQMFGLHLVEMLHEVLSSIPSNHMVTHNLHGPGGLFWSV
UniProt Q6GQT9: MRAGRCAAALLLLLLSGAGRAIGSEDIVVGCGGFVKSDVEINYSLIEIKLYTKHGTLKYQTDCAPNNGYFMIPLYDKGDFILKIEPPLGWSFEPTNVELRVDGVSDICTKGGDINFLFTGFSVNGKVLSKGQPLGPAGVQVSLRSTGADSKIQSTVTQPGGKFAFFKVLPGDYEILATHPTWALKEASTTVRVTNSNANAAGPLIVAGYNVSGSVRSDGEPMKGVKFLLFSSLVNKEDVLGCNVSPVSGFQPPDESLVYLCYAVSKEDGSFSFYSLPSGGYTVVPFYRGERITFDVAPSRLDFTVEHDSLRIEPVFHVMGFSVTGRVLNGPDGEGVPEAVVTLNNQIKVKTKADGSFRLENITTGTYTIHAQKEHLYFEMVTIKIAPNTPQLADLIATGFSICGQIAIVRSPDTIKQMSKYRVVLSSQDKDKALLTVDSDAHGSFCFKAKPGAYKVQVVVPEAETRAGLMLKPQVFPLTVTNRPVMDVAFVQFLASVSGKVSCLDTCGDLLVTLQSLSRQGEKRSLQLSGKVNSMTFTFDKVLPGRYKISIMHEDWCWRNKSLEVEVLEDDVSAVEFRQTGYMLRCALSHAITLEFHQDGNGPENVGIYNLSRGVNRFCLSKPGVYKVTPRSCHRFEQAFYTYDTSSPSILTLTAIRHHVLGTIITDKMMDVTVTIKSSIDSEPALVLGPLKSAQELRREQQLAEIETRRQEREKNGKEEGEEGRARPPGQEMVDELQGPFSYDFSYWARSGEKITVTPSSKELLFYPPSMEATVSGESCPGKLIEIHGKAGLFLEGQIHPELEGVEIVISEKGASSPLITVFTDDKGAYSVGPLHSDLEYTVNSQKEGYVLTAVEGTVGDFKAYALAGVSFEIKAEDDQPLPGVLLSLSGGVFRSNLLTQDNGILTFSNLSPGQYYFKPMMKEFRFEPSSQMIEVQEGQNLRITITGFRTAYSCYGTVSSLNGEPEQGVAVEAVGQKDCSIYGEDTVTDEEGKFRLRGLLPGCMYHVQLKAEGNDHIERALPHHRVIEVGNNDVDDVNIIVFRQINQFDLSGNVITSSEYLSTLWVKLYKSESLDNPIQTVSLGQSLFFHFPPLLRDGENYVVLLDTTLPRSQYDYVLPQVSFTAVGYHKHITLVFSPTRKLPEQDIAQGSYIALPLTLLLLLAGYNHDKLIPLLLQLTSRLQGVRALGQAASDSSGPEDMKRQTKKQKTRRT

Compound in the assay: CN[C@@H]1C[C@H]2O[C@@](C)([C@@H]1OC)n1c3ccccc3c3c4c(c5c6ccccc6n2c5c31)C(=O)NC4 [staurosporine]
Put plainly: log2 fold change of tryptic peptide abundance, ligand vs vehicle (limited proteolysis) (log2 ratio); higher = more trypsin-susceptible (destabilized). The note with it: ligand concentration: 20 uM; sample: mouse liver crude lysate; replicate design: treated separately.
As for “UniProt Q6IR34 (peptide sequence: CPPPDVLPR, peptide start residue: 614)”, the log2 fold change amounted to 0.309. In the case of “UniProt Q6PAL0 (peptide sequence: ANSSSGPSPLR, peptide start residue: 157)” it was -0.0539; in that of “UniProt Q6PD29 (peptide sequence: GPAALGATGSR, peptide start residue: 524)”, -0.174.

With “UniProt Q6PB70 (peptide sequence: DQGPDGDRDTETGSGDAAGR, peptide start residue: 684)”, the log2 fold change turned out to be 0.0871. With “UniProt Q6A070 (peptide sequence: TQSAHCYCGDHTR, peptide start residue: 618)” the figure was -0.524; with “UniProt Q69ZT1 (peptide sequence: RADVGLAEPLEVR, peptide start residue: 289)”, 0.18. In the case of “UniProt Q6DID5 (peptide sequence: LDGGQNPPTR, peptide start residue: 298)” it was 0.237; in that of “UniProt Q6PEB4 (peptide sequence: LRAGLGVLHDVEDIRYEPK, peptide start residue: 371)”, 0.651. On to “UniProt Q6P8X1 (peptide sequence: MKQELEAEYLAIFKK, peptide start residue: 125)”, for which the log2 fold change is -0.508. With “UniProt Q6Q899 (peptide sequence: QNLQAFR, peptide start residue: 7)” the figure was 0.358. In the case of “UniProt Q6NS86 (peptide sequence: GLHSQGLGR, peptide start residue: 559)” it was -0.123; in that of “UniProt Q6A058 (peptide sequence: AAPGAHTGAIPK, peptide start residue: 410)”, 0.0254.

Regarding “UniProt Q6P8I4 (peptide sequence: SHLGNVHDQDN, peptide start residue: 168)”, the log2 fold change worked out at 0.0968. On to “UniProt Q6P068 (peptide sequence: VIIVGLDNAGK, peptide start residue: 19)”, for which the log2 fold change was -0.203. In the case of “UniProt Q6P6M7 (peptide sequence: ASVVSGADR, peptide start residue: 468)” it was -0.149; in that of “UniProt Q6NZC7 (peptide sequence: SAWQTLNEFAR, peptide start residue: 878)”, -0.192. With “UniProt Q6PDG8 (peptide sequence: LLGLYQYLHSR, peptide start residue: 477)” the figure was -0.537. Regarding “UniProt Q6P6J9 (peptide sequence: FSASLAPHFNSLPR, peptide start residue: 206)”, the log2 fold change is -0.264.

Take “UniProt Q6DFW5 (peptide sequence: CSPNHISR, peptide start residue: 1142)”: the log2 fold change was 0.0487.

“UniProt Q6NVF4 (peptide sequence: TSQFIAFR, peptide start residue: 721)”: the log2 fold change was -0.618.

For “UniProt Q6P1H1 (peptide sequence: RPDPGALTDR, peptide start residue: 225)”, the log2 fold change worked out at 0.0189.

As to “UniProt Q6GYP7 (peptide sequence: DQPGQAPMR, peptide start residue: 722)”, the log2 fold change is -0.187.

In the case of “UniProt Q6PAT0 (peptide sequence: GLGTPFLVPVPARPPLTR, peptide start residue: 119)”, the log2 fold change was 0.144.

As to “UniProt Q6PGB6 (peptide sequence: RIEPADAHVLQK, peptide start residue: 141)”, the log2 fold change is -0.421.

Take “UniProt Q6PD24 (peptide sequence: EQEELER, peptide start residue: 579)”: the log2 fold change is -0.11. Take “UniProt Q6P0X2 (peptide sequence: GPAMPAAADAATR, peptide start residue: 185)”: the log2 fold change came out at 0.0813. For “UniProt Q6PE15 (peptide sequence: SELPNLAYKR, peptide start residue: 52)”, the log2 fold change is 0.415.

As for “UniProt Q6A085 (peptide sequence: AFTQSTNLIK, peptide start residue: 241)”, the log2 fold change amounted to 0.475. With “UniProt Q6DFX2 (peptide sequence: VSLMRPQEGDEGR, peptide start residue: 465)” the figure was 0.136. With “UniProt Q6NV72 (peptide sequence: TPEHTSTPELNSPQR, peptide start residue: 524)” the figure was -0.22; with “UniProt Q6GQT9 (peptide sequence: VQVVVPEAETR, peptide start residue: 456)”, 0.193. With “UniProt Q6P9N1 (peptide sequence: AASSTSQSGLSNSSHNCSNK, peptide start residue: 355)” the figure was -0.675; with “UniProt Q6PG16 (peptide sequence: LNPDSPQQSSQK, peptide start residue: 598)”, 0.538. “UniProt Q6DID3 (peptide sequence: EGITRPPQVDVR, peptide start residue: 1023)”: the log2 fold change was -0.285. In the case of “UniProt Q6PE01 (peptide sequence: KGPELPLVPVK, peptide start residue: 8)” it was 0.265; in that of “UniProt Q6P5H2 (peptide sequence: QESLKSPEEEDQQAFR, peptide start residue: 726)”, -0.446.

These data come from the supplement of paper PMC12819154, “High-throughput peptide-centric local stability assay extends protein–ligand identification to membrane proteins, tissues and bacteria” (Nature Structural & Molecular Biology, 2025).
